As a reminder, the AC50 is the concentration giving half of the maximal activity seen.

The assay in a line: qHTS Assay for Lipid Storage Modulators in Drosophila S3 Cells.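 As to cell number change: cells counted by Cell Tracker Red CMTPX staining in the red channel.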 Particulars: BODIPY lipid droplet fluorescence, 18-24 h; for cell number change: measured here: cell count max response, cells fed with added oleic acid. The essentials: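 Laser-scanning cytometry quantifies lipid droplet accumulation (500–530 nm total intensity; droplet/cell object ratio) in oleic acid-fed (400 uM added) Drosophila S3 cells treated with a concentration series. 20 uM Triacsin C defined 100% inhibition.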
Background: qHTS replaces the single test concentration by a dilution series.

The mark [1] stands for this setting: measured here: lipid fluorescence (Fed channel) AC50, cells fed with added oleic acid.
Where [2] appears, read: measured here: cell number channel AC50, cells fed with added oleic acid.

The list shows a part of the results. The main result of the screen is listed elsewhere. These columns were measured beside it and carry no call. The list favours compounds with an active or inconclusive main result. The note in brackets gives the kind of curve behind each potency; many fits are weak.

Take `CN1C(=O)C2ON(c3ccccc3)C(c3cccs3)C2C1=O` (stereo not drawn): the cell number change is -13.3%. Also, the AC50 under setting [1] was 3260 nM [falling, partial curve].

For `Cc1nc2cc(S(=O)(=O)C(F)(F)F)ccc2s1`, the cell number change amounted to 21.7%. For the same compound, the concentration at half-maximal activity (AC50) under setting [2] was 1030 nM [rising, full curve, poor fit].

With `Cc1ccc(CNC(=O)c2cc(COc3c(F)cccc3F)on2)s1`, the cell number change amounted to 24%. For the same compound, under setting [1], the half-maximal activity concentration (AC50) is 1460 nM [rising, full curve, poor fit].

On to `Nn1c(SCC(=O)NC(=O)Nc2ccc3c(c2)OCCO3)nnc1C1CC1`, for which the cell number change was determined as 41.3%. For the same compound, the AC50 under setting [1] was 29100 nM [rising, single point].

For `CC1(C)CC(=O)c2cnc3c(C#N)cnn3c2C1`, the cell number change is 5.88%. Further, the concentration at half-maximal activity (AC50) under setting [1] was 6510 nM [rising, single point].

Take `CCc1nc(SCC(=O)NCCc2ccccc2)c2c(=O)n(C)c(=O)n(C)c2n1`: the cell number change was -8.51%. The AC50 under setting [1] was 731 nM [rising, single point].

As to `Cc1cc(C(=O)O)ccc1-c1ccc(/C=C2\SC(=O)N(CC(=O)Nc3ccc4c(c3)OCO4)C2=O)o1`, the cell number change was found to be 83.9%. Besides, the AC50 under setting [2] is 25900 nM [rising, partial curve, poor fit]. Moreover, under setting [1], the concentration at half-maximal activity (AC50) is 29100 nM [falling, single point].

In the case of `C=CCNc1nc(N)c([N+](=O)[O-])c(NCc2ccccc2)n1`, the cell number change is 15.8%. Also, the AC50 under setting [1] is 13000 nM [rising, single point].

Take `CN1/C(=C\C=N\NC(=O)c2ccc(O)cc2)C(C)(C)c2ccccc21`: the concentration at half-maximal activity (AC50) under setting [1] is 2590 nM [falling, partial curve].

On to `CCOc1ccc(C(=O)N(CC)CC(=O)Nc2ccc3c(c2)OCCO3)cc1OCC`, for which the cell number change is 8.96%. The concentration at half-maximal activity (AC50) under setting [2] was 146 nM [falling, full curve, poor fit]. Also, the concentration at half-maximal activity (AC50) under setting [1] is 5800 nM [rising, full curve].

Consider `COc1ccc(/C=C/C(=O)N(C)Cc2cccs2)cc1S(=O)(=O)N1CCOCC1`, for which the cell number change was found to be 23.6%. Further, the concentration at half-maximal activity (AC50) under setting [2] is 206 nM [rising, single point].

As for `C=C(C)C1CC=C(CN2CC(C)OC(C)C2)CC1` (stereo not drawn), the cell number change was -14.5%. The concentration at half-maximal activity (AC50) under setting [2] was 820 nM [rising, single point]. Under setting [1], the AC50 was 5.17 nM [rising, full curve, poor fit].

On to `Cn1c(N)c(C(=O)COC(=O)c2ccco2)c(=O)n(C)c1=O`, for which the cell number change was -4.95%.

With `c1ccc2c(c1)CCCN2Cc1nnnn1C1CCCC1`, the cell number change worked out at 14.4%.

`CNC(=O)C(Sc1ccccc1)c1ccccc1` (stereo not drawn): the cell number change is 4.36%. Moreover, the AC50 under setting [1] is 731 nM [falling, full curve].

For `COc1ccc(Br)cc1/C=N/NC(=O)c1cccc(S(=O)(=O)N2CCOCC2)c1`, the cell number change is -11.9%. The half-maximal activity concentration (AC50) under setting [1] was 920 nM [falling, full curve, poor fit].

Regarding `Cc1nc2c(-c3ccc(F)cc3)cnn2c(N)c1-c1ccccc1`, the cell number change is -22.8%. For the same compound, the AC50 under setting [1] is 23100 nM [falling, single point].

Turning to `Cc1nn(C)cc1C(C(=O)NC1CCCCC1)N(C(=O)Cc1cccs1)c1ccc(C(C)C)cc1` (stereo not drawn), the cell number change was 24.7%. Moreover, under setting [1], the AC50 was 29100 nM [rising, single point].

With `O=C(O)C1C(C(=O)O)C1(c1ccccc1)c1ccccc1` (stereo not drawn), the cell number change is -18.3%. Further, the AC50 under setting [1] is 6510 nM [falling, full curve, poor fit].

On to `Cc1ccc(F)c(NC(=O)c2ccc(Cn3cc(Cl)cn3)cc2)c1`, for which the cell number change was -21.3%. The concentration at half-maximal activity (AC50) under setting [1] is 29100 nM [falling, single point].

In the case of `CCn1c(=O)cc(SCC(=O)Nc2ccc(Cl)cc2)c2ccccc21`, the cell number change worked out at 8.7%. Further, the half-maximal activity concentration (AC50) under setting [1] is 4110 nM [rising, single point].

Regarding `COc1ccc2ccccc2c1-c1sc(Nc2ccccc2)n[n+]1-c1ccc(F)cc1`, the cell number change is 13.8%. Under setting [2], the AC50 was 36.6 nM [rising, full curve, poor fit]. Also, under setting [1], the AC50 is 20600 nM [falling, single point].

`O=C(COc1ccc(Cl)cc1)OCC(=O)N1CCCC1`: the cell number change was -23.1%. Further, the AC50 under setting [2] was 184 nM [falling, full curve, poor fit]. The concentration at half-maximal activity (AC50) under setting [1] was 326 nM [falling, partial curve].

As to `CCc1ccc(CNC(=O)c2ccc(OC)c(OC3CCN(C(C)C)CC3)c2)nc1`, the cell number change came out at 17.9%.

With `COC(=O)c1[nH]c2ccc(C)cc2c1NC(=O)CN1CCCc2ccccc21`, the cell number change was -11.2%. In addition, the half-maximal activity concentration (AC50) under setting [2] is 6510 nM [falling, single point]. The concentration at half-maximal activity (AC50) under setting [1] is 6510 nM [falling, single point].

Take `COc1ccc(OC)c2[nH]c(=O)c(CCNC(=O)c3ccc(Br)o3)cc12`: the cell number change was -17.8%. For the same compound, the half-maximal activity concentration (AC50) under setting [2] is 1840 nM [rising, partial curve]. In addition, under setting [1], the half-maximal activity concentration (AC50) was 651 nM [rising, full curve].

In the case of `C=CCNC(=S)Nc1ccc(OC)c(S(=O)(=O)N2CCOCC2)c1`, the half-maximal activity concentration (AC50) under setting [2] was 1840 nM [falling, partial curve, poor fit].

On to `CCOC(=O)CNC(c1ccccc1)c1cc(Br)ccc1NC(=O)CCN1CCOCC1` (stereo not drawn), for which the cell number change was 6.43%. Besides, the AC50 under setting [1] is 1030 nM [falling, single point].

Regarding `COc1ccccc1CCNC(=O)CN1C(=O)c2ccccc2S1(=O)=O`, the cell number change worked out at 34.9%. Further, the concentration at half-maximal activity (AC50) under setting [2] was 23100 nM [rising, partial curve, poor fit].

As for `COc1ccc(/C(C)=N/Nc2nccnc2Cl)cc1`, the cell number change was -19.8%. Besides, under setting [1], the half-maximal activity concentration (AC50) was 5.8 nM [falling, full curve, poor fit].

Take `Cc1ccccc1S(=O)(=O)Cc1ccc(C(=O)NCCCN(C)Cc2ccccc2)o1`: the cell number change is 6.11%. Moreover, under setting [1], the concentration at half-maximal activity (AC50) is 2060 nM [rising, partial curve].

On to `COc1ccc(C2=CC(=O)N(Nc3ccccc3)C2=O)cc1`, for which the cell number change was -60.1%. The AC50 under setting [2] was 2590 nM [rising, single point].

Regarding `COc1cccc(-n2c(=O)c3sccc3n(CC(=O)NCC3CCCO3)c2=O)c1` (stereo not drawn), the cell number change was found to be 25.2%. Further, the AC50 under setting [1] is 6510 nM [falling, single point].

On to `COc1cc([N+](=O)[O-])ccc1NC(=O)/C=C\C(=O)O`, for which the cell number change is -49.5%.

Consider `COc1ccc(Nc2nc(NCc3ccco3)nc(N/N=C/c3ccc(O)cc3)n2)cc1`, for which the cell number change is -40.6%. Moreover, under setting [2], the AC50 is 32600 nM [falling, single point].

For the compound `O=C(NCCCN1CCOCC1)C(=O)NCc1ccccc1`, the cell number change was -7.04%. Also, the concentration at half-maximal activity (AC50) under setting [1] was 146 nM [falling, full curve, poor fit].

`O=C(O)c1ccc(N2C(=O)CCCC2=O)cc1`: the cell number change is -19.9%. The AC50 under setting [1] is 8.2 nM [falling, full curve, poor fit].

Consider `C=CCNc1scc(-c2ccccc2)[n+]1CC=C`, for which the cell number change is -49.3%. For the same compound, the AC50 under setting [2] was 1160 nM [falling, full curve]. Moreover, the AC50 under setting [1] is 29100 nM [falling, single point].

As for `N=C1/C(=C/c2ccc(OCc3ccccc3)cc2)C(=O)N=C2SC(CC(=O)N3CCOCC3)=NN12`, the cell number change was found to be 18%. Further, the half-maximal activity concentration (AC50) under setting [2] was 411 nM [rising, full curve, poor fit]. Also, the AC50 under setting [1] was 411 nM [rising, partial curve, poor fit].

On to `[O-]/[N+](=C/c1cccnc1)c1ccc(Br)cc1`, for which the cell number change was -0.992%. Moreover, the AC50 under setting [1] is 103 nM [falling, full curve, poor fit].

For the compound `O=C(N=Nc1c(O)[nH]c2ccc(F)cc12)c1ccc(NS(=O)(=O)c2cccs2)cc1`, the cell number change stood at 21.7%. For the same compound, the concentration at half-maximal activity (AC50) under setting [1] is 7310 nM [rising, partial curve].

As to `O=C(COc1ccc([N+](=O)[O-])cc1)Nc1cccnc1`, the cell number change was -0.623%. Moreover, under setting [1], the concentration at half-maximal activity (AC50) is 8200 nM [rising, partial curve].

Consider `CCn1c(SCC(=O)Nc2cc(OC)c(OC)c(OC)c2)nnc1-c1cccs1`, for which the cell number change is 11.9%. Also, the half-maximal activity concentration (AC50) under setting [2] was 651 nM [rising, full curve]. Under setting [1], the AC50 was 3660 nM [falling, full curve, poor fit].

On to `N#Cc1cc2ccc(N3CCOCC3)cc2cc1C#N`, for which the cell number change was -35.4%. Moreover, the AC50 under setting [2] is 9200 nM [falling, partial curve, poor fit].

Turning to `O=C(NCCN1CCOCC1)c1ccccc1[N+](=O)[O-]`, the cell number change was -24.6%. For the same compound, the concentration at half-maximal activity (AC50) under setting [1] is 1640 nM [rising, partial curve].

As to `Cc1nonc1NC(=O)CSc1ccccn1`, the AC50 was 82 nM [falling, full curve, poor fit] under setting [2] and 6510 nM [falling, single point] under setting [1].

Consider `C=CCn1c(SCC(=O)Nc2c(C)n(C)n(-c3ccccc3)c2=O)nc2scc(-c3ccccc3)c2c1=O`, for which the cell number change came out at 82.5%. The AC50 under setting [2] was 517 nM [rising, partial curve]. Further, under setting [1], the half-maximal activity concentration (AC50) was 4610 nM [rising, partial curve, poor fit].

`COc1ccccc1-c1sc2cc3c(cc2c1C#CCO)OCO3`: the cell number change is -14.8%. For the same compound, the AC50 under setting [1] was 5.17 nM [falling, full curve, poor fit].

In the case of `COc1ccc(NC(=O)CSc2nnc(C3CCCCC3)n2N)c(OC)c1`, the cell number change was 5.07%. In addition, the concentration at half-maximal activity (AC50) under setting [1] is 2310 nM [rising, partial curve, poor fit].

Turning to `O=C(CN1C(=O)C2CC=CCC2C1=O)Nc1ccc(OC(F)(F)F)cc1` (stereo not drawn), the cell number change was -11.4%.

Consider `CNC(=S)Nc1ccc([N+](=O)[O-])cc1C`, for which the cell number change was -12.3%.

On to `CCN(CC)C(=O)CSc1nc(N)c2c3c(sc2n1)CC(C)CC3` (stereo not drawn), for which, under setting [1], the half-maximal activity concentration (AC50) is 4610 nM [rising, single point].

For `CCOC(=O)c1c(C)[nH]c(C(=O)N/N=C\c2ccccc2Cl)c1C`, the concentration at half-maximal activity (AC50) under setting [1] is 146 nM [rising, full curve, poor fit].

On to `Cc1cc(NS(=O)(=O)c2ccc(NC(=O)c3c(F)c(F)c(F)c(F)c3F)cc2)nc(C)n1`, for which the cell number change was -25.6%.

Take `Cc1nc(-c2ccccc2)sc1C(=O)CSc1ccc(Cl)cc1`: the cell number change is 55.6%. Also, under setting [2], the AC50 was 13000 nM [rising, partial curve]. The concentration at half-maximal activity (AC50) under setting [1] was 6510 nM [rising, partial curve].

Turning to `CCn1ccnc1CNC(=O)c1ccc2oc(CCCc3ccccc3)nc2c1`, the cell number change is -1.05%. In addition, under setting [1], the half-maximal activity concentration (AC50) is 6510 nM [rising, single point].

For the compound `Oc1ccc(NCc2cccc(OCc3ccccc3)c2)cc1`, the cell number change was -30.6%. The concentration at half-maximal activity (AC50) under setting [2] was 32600 nM [falling, single point]. In addition, the half-maximal activity concentration (AC50) under setting [1] is 29100 nM [falling, single point].

As for `CCC(=O)c1ccc(OCC(=O)N2CCN(c3ccccn3)CC2)cc1`, the cell number change was 26.5%. For the same compound, the half-maximal activity concentration (AC50) under setting [1] is 18400 nM [rising, partial curve, poor fit].

Values taken from PubChem BioAssay AID2685 (National Center for Advancing Translational Sciences (NCATS), 2010).
